No constants are given. Whether binding was seen depends on the method and setting. In cells and extracts the contact can be indirect. Some binding calls cover weakened binding; strength is not graded here.

The results in this text go back to article PMC4278844.

In assay [1] the target is T1, Activating transcription factor 7 (ATF7), endogenous (human (endogenous in HeLa S3)) (UniProt P17544).
T1 sequence: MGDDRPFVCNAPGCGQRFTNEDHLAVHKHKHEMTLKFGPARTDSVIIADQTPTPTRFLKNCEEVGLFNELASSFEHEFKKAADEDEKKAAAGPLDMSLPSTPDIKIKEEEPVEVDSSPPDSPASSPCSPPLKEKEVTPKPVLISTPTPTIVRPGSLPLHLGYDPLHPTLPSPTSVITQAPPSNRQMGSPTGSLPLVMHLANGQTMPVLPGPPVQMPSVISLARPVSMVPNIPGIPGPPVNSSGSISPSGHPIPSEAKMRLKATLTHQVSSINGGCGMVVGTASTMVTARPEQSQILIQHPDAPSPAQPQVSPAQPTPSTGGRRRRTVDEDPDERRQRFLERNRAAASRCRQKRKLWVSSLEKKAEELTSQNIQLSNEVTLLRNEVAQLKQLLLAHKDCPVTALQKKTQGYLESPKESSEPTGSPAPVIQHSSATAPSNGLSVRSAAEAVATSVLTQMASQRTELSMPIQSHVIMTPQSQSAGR
In words: co-IP; endogenous ATF2 or ATF7 immunoprecipitated with specific antibodies (ATF2[SS-16]; ATF7[SAB2500131 or HPA003384]) on protein-G beads from Triton X-100 lysates of asynchronous and mitotic (shake-off) HeLa S3 cells; Western blot. A general note: In western blotting, separated proteins are transferred to a membrane and probed.

Assay [2] addresses T2, Activating transcription factor 2 (ATF2), endogenous (human (endogenous in HeLa S3)) (UniProt P15336).
T2 sequence: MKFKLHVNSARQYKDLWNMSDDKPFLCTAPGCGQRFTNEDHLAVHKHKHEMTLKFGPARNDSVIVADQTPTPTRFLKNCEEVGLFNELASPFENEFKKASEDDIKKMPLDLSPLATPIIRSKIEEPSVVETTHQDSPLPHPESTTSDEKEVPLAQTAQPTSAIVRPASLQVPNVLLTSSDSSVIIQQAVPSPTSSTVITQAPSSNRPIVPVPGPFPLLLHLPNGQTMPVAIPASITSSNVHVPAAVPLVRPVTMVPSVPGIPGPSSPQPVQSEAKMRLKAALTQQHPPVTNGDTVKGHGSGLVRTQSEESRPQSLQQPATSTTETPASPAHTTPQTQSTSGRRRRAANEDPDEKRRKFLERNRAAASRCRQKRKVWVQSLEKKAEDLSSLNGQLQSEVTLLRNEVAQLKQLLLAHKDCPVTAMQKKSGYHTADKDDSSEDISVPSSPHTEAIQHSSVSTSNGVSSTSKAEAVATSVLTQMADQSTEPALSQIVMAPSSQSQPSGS
The assay is described as above.

B1: Activating transcription factor 2 (ATF2), endogenous (protein, UniProt P15336-1 1-505)
chain: T2 sequence
On to B1, for which the binding result in assay [1] was “binds”.

B2: Activating transcription factor 7 (ATF7), endogenous (protein, UniProt P17544 1-483)
chain: T1 sequence
Consider B2, for which, in assay [2], the binding entry is reported as “binds”.
